Test results reported in the supplement of paper PMC6078165.
The reference is the same well before dosing, and untreated signal decays as well.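 Fibroblast labels denote human fibroblasts, mainly primary ones from uterus (C12385, HUF), lung (H6013), bone (Hs27A), adrenal (HADF) and skin (WS1), plus mammary HMF and breast cancer-associated Hs343T. Cancer cells are basal-like or mesenchymal-like triple-negative breast cancer lines. A hit is a response shift exceeding 3x replicate standard deviation. The tissue of the other fibroblasts is not given here.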

Test system: Hs578T
Assay: relative JC-1 red fluorescence (viability) vs pre-drug, coculture with fibroblast (fraction); higher = more viable cancer cells
Procedure: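 JC-1 labelled TNBC cells cocultured 1:1 (1,500 cells each) with CellTrace Violet stained primary or stromal fibroblasts in 384-well plates in FluoroBrite medium, treated with one of 42 anticancer drugs at 0.1, 1, 10 or 100 uM. JC-1 red fluorescence (mitochondrial integrity in cancer cells only) was read by plate reader every 8 h for 72 h. Values are normalised to each well's pre-drug value. The stock of one drug was tenfold lower, so its dose labels may be too high.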

O=C(O)C(=O)O.[NH-][C@@H]1CCCC[C@H]1[NH-].[Pt+2] [Oxaliplatin]
relative JC-1 red fluorescence
Settings | 8 h | 16 h | 24 h | 32 h | 40 h | 48 h | 56 h | 64 h | 72 h
0.1 µM | 0.881 | 0.797 | 0.763 | 0.738 | 0.679 | 0.642 | 0.624 | 0.592 | 0.58
1 µM | 0.937 | 0.816 | 0.739 | 0.695 | 0.631 | 0.583 | 0.556 | 0.509 | 0.489

relative JC-1 red fluorescence
Settings | 8 h | 16 h | 24 h | 32 h | 40 h | 48 h | 56 h | 64 h | 72 h
0.1 µM, coculture fibroblast: C12385 | 0.821 | 0.732 | 0.678 | 0.587 | 0.525 | 0.498 | 0.478 | 0.47 | 0.474
0.1 µM, coculture fibroblast: H6013 | 0.867 | 0.811 | 0.765 | 0.742 | 0.715 | 0.7096 | 0.6951 | 0.7041 | 0.6832
0.1 µM, coculture fibroblast: H6019 | 0.8139 | 0.7281 | 0.72 | 0.628 | 0.598 | 0.574 | 0.546 | 0.528 | 0.513
0.1 µM, coculture fibroblast: H6076 | 0.9 | 0.81 | 0.761 | 0.747 | 0.6958 | 0.6895 | 0.6727 | 0.674 | 0.678
0.1 µM, coculture fibroblast: H6231 | 0.872 | 0.777 | 0.707 | 0.6576 | 0.583 | 0.562 | 0.514 | 0.513 | 0.508
0.1 µM, coculture fibroblast: HADF | 0.854 | 0.809 | 0.753 | 0.717 | 0.7 | 0.691 | 0.679 | 0.688 | 0.677
0.1 µM, coculture fibroblast: HCFa | 0.8435 | 0.786 | 0.735 | 0.69 | 0.645 | 0.64 | 0.624 | 0.62 | 0.599
0.1 µM, coculture fibroblast: HCPF | 0.9 | 0.794 | 0.734 | 0.7 | 0.643 | 0.619 | 0.593 | 0.564 | 0.548
0.1 µM, coculture fibroblast: HHSteC | 0.854 | 0.786 | 0.728 | 0.686 | 0.638 | 0.612 | 0.593 | 0.583 | 0.566
0.1 µM, coculture fibroblast: HMF | 0.869 | 0.792 | 0.733 | 0.709 | 0.648 | 0.62 | 0.584 | 0.572 | 0.562
0.1 µM, coculture fibroblast: HPFa | 0.869 | 0.824 | 0.779 | 0.733 | 0.72 | 0.706 | 0.683 | 0.671 | 0.638
0.1 µM, coculture fibroblast: HUF | 0.827 | 0.725 | 0.712 | 0.592 | 0.531 | 0.503 | 0.481 | 0.488 | 0.49
0.1 µM, coculture fibroblast: Hs27A | 0.8733 | 0.844 | 0.816 | 0.788 | 0.744 | 0.755 | 0.734 | 0.746 | 0.71
0.1 µM, coculture fibroblast: Hs343T | 0.88 | 0.791 | 0.73 | 0.712 | 0.648 | 0.624 | 0.589 | 0.578 | 0.591
0.1 µM, coculture fibroblast: WS1 | 0.7655 | 0.664 | 0.667 | 0.5632 | 0.522 | 0.524 | 0.504 | 0.516 | 0.533
1 µM, coculture fibroblast: C12385 | 0.828 | 0.714 | 0.643 | 0.553 | 0.49 | 0.462 | 0.439 | 0.431 | 0.429
1 µM, coculture fibroblast: H6013 | 0.8954 | 0.811 | 0.768 | 0.745 | 0.716 | 0.706 | 0.686 | 0.686 | 0.668
1 µM, coculture fibroblast: H6019 | 0.768 | 0.677 | 0.632 | 0.539 | 0.494 | 0.464 | 0.428 | 0.403 | 0.376
1 µM, coculture fibroblast: H6076 | 0.929 | 0.807 | 0.751 | 0.725 | 0.673 | 0.656 | 0.629 | 0.618 | 0.61
1 µM, coculture fibroblast: H6231 | 0.89825 | 0.819 | 0.75 | 0.712 | 0.658 | 0.623 | 0.577 | 0.552 | 0.535
1 µM, coculture fibroblast: HADF | 0.9199 | 0.847 | 0.777 | 0.716 | 0.648 | 0.6 | 0.555 | 0.52 | 0.485
1 µM, coculture fibroblast: HCFa | 0.876 | 0.786 | 0.721 | 0.658 | 0.579 | 0.553 | 0.508 | 0.487 | 0.445
1 µM, coculture fibroblast: HCPF | 0.965 | 0.893 | 0.851 | 0.807 | 0.754 | 0.733 | 0.7028 | 0.6657 | 0.638
1 µM, coculture fibroblast: HHSteC | 0.885 | 0.783 | 0.729 | 0.682 | 0.634 | 0.604 | 0.577 | 0.552 | 0.517
1 µM, coculture fibroblast: HMF | 0.8887 | 0.7773 | 0.7266 | 0.6958 | 0.645 | 0.617 | 0.585 | 0.559 | 0.546
1 µM, coculture fibroblast: HPFa | 0.934 | 0.829 | 0.756 | 0.69 | 0.638 | 0.6 | 0.547 | 0.521 | 0.465
1 µM, coculture fibroblast: HUF | 0.881 | 0.756 | 0.72 | 0.623 | 0.563 | 0.523 | 0.487 | 0.466 | 0.4535
1 µM, coculture fibroblast: Hs27A | 0.886 | 0.844 | 0.80598 | 0.7742 | 0.723 | 0.706 | 0.668 | 0.653 | 0.595
1 µM, coculture fibroblast: Hs343T | 0.949 | 0.818 | 0.729 | 0.688 | 0.598 | 0.562 | 0.512 | 0.487 | 0.472
1 µM, coculture fibroblast: WS1 | 0.82 | 0.726 | 0.666 | 0.573 | 0.519 | 0.507 | 0.468 | 0.458 | 0.456
